Source: article PMC5853475
These are yes or no findings as the source states them, for the method shown. In cells and extracts the contact can be indirect. Where a sequence is shown, tags or fusion partners need not be part of it.

B1: bHLH48-nYFP (protein, UniProt Q8VZ02 1-327)
chain: MDLTQGFRARSGVVGPVAGLESLNFSDEFRHLVTTMPPETTGGSFTALLEMPVTQAMELLHFPDSSSSQARTVTSGDISPTTLHPFGALTFPSNSLLLDRAARFSVIATEQNGNFSGETANSLPSNPGANLDRVKAEPAETDSMVENQNQSYSSGKRKEREKKVKSSTKKNKSSVESDKLPYVHVRARRGQATDNHSLAERARREKINARMKLLQELVPGCDKIQGTALVLDEIINHVQTLQRQVEMLSMRLAAVNPRIDFNLDSILASENGSLMDGSFNAESYHQLQQWPFDGYHQPEWGREEDHHQANFSMGSATLHPNQVKMEL
B2: bHLH60-nYFP (protein, UniProt Q3EAI1 1-426)
chain: MDLTGGFGARSGGVGPCREPIGLESLHLGDEFRQLVTTLPPENPGGSFTALLELPPTQAVELLHFTDSSSSQQAAVTGIGGEIPPPLHSFGGTLAFPSNSVLMERAARFSVIATEQQNGNISGETPTSSVPSNSSANLDRVKTEPAETDSSQRLISDSAIENQIPCPNQNNRNGKRKDFEKKGKSSTKKNKSSEENEKLPYVHVRARRGQATDSHSLAERARREKINARMKLLQELVPGCDKGTDFGGKIKIKVCFGVHLLMISGKKVAIFLWKVSCEDLIDCSFSPPRIQGTALVLDEIINHVQSLQRQVEMLSMRLAAVNPRIDFNLDTILASENGSLMDGSFNAAPMQLAWPQQAIETEQSFHHRQLQQPPTQQWPFDGLNQPVWGREEDQAHGNDNSNLMAVSENVMVASANLHPNQVKMEL

What was measured:
[1] = biological target: T1, RGL1-cYFP (Arabidopsis thaliana) (UniProt Q9C8Y3); experiment: split reporter; BiFC; nYFP and cYFP fusions co-expressed by Agrobacterium infiltration in N. benthamiana leaf epidermal cells; 24 °C, observed after 48 h
T1 sequence: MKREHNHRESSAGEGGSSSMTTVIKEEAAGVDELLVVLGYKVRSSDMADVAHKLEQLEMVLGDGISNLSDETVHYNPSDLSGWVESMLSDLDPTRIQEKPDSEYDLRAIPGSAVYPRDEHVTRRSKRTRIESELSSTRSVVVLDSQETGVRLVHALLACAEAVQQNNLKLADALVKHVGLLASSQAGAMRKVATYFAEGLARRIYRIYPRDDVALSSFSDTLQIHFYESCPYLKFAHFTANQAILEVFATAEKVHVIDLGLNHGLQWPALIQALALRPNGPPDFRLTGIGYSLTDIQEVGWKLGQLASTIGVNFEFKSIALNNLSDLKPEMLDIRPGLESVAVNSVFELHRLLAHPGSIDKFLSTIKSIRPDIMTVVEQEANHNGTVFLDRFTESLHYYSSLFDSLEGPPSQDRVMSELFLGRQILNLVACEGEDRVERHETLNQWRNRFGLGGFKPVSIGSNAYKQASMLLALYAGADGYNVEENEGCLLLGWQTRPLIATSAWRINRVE

[2] = biological target: cYFP (C-terminal fragment of yellow fluorescent protein, alone); experiment: as above

Molecule	binding [1]	binding [2]
nYFP (N-terminal fragment of yellow fluorescent protein, alone) (domain or fragment)	no binding	–
B1	–	no binding
B2	–	no binding
